This is one part of the list. The main result of the screen is listed elsewhere. These columns were measured beside it and carry no call. Compounds called inactive in the main read-out are mostly missing here. Words in brackets tell the shape of the fitted curve; partial curves, single points and poor fits give uncertain potencies.
Test: qHTS Assay for Modulators of Lamin A Splicing
Settings: HeLa LMNA splicing GFP/RFP minigene ratio, 48 h
Summary of the method: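 S3 HeLa cells stably expressing lamin A-EGFP splicing minigene plus DsRed2, 600 cells/well, 48 h compound exposure at 37C. Laser-scanning cytometry; analysed as GFP (500-530 nm)/RFP (575-640 nm) total intensity ratio; 0.5% DMSO vehicle.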

[1] = measured here: GFP splicing reporter channel
[2] = measured here: RFP viability control channel

Compound | AC50 [1] | AC50 [2]
COc1cc2c(cc1NC(=O)c1ccccc1F)CCCC2 | 25.1 µM [rising, single point] | 35.5 µM [rising, single point]
COc1cc(CNn2c(C)n[nH]c2=S)cc(Cl)c1OCc1ccccc1 | 5.62 µM [falling, single point] | 5.62 µM [falling, single point]
CCCCNC(=O)c1onc(CCl)c1C(=O)OC | 15.8 µM [falling, single point] | 25.1 µM [falling, single point]
Cc1ccccc1NS(=O)(=O)c1nnc(NC(=O)c2ccc(Cl)cc2)s1 | 0.282 µM [falling, full curve, poor fit] | –
Cc1ccc(C)c(C(=O)COc2ccc(C)nc2[N+](=O)[O-])c1 | 35.5 µM [falling, single point] | 12.6 µM [falling, partial curve, poor fit]
CCOC(=O)c1cccc(NC(=O)Cn2c(CC(=O)NC)nc3ccccc32)c1 | 12.6 µM [rising, partial curve, poor fit] | 35.5 µM [rising, single point]
Cc1ccc(C(=O)C(OC(=O)c2c(C)cc(=O)oc2C)c2ccccc2)cc1 (stereo unspecified) | 11.2 µM [rising, single point] | 11.2 µM [rising, single point]
O=c1c2ccccc2nnn1CSc1ncnc2ccccc12 | 8.91 µM [falling, partial curve] | 22.4 µM [falling, partial curve]
O=C(O)c1ccccc1OC(=O)C12CC3CC(CC(C3)C1)C2 | 0.562 µM [falling, full curve, poor fit] | –
O=C(NCc1cccnc1)c1cc(Sc2ccc(F)cc2F)nc2ccccc12 | 25.1 µM [rising, single point] | 28.2 µM [rising, partial curve]
Cc1ccc(C)n1-c1c(C(=O)NCC(C)c2ccccc2)sc2ncccc12 (stereo unspecified) | – | 35.5 µM [rising, single point]
COc1ccc(Br)cc1/C=C/C(=O)Nc1ccc(C)cc1 | – | 17.8 µM [rising, partial curve]
CCc1ccccc1N(C)C(=O)CCc1nc(-c2ccc(C)cc2)no1 | – | 17.8 µM [rising, single point]
CCOc1ccc(CCNc2cc(C)nc3ncnn23)cc1OCC | – | 14.1 µM [rising, partial curve]
CCc1ccc(/C=C/C(=O)C2C(=O)c3ccccc3C2=O)cc1 | 22.4 µM [falling, single point] | 35.5 µM [falling, single point]
COc1ccccc1C1C2=C(COC2=O)Nc2cc3c(cc21)OCO3 (stereo unspecified) | 0.631 µM [falling, full curve] | 1.26 µM [falling, full curve]
O=C(Nc1ccc(C(F)(F)F)cc1)c1cc(S(=O)(=O)NC2CCCCC2)ccc1F | 22.4 µM [falling, single point] | 22.4 µM [falling, partial curve]
O=C(Cc1ccccc1)N1CCN=C1SCc1cccc([N+](=O)[O-])c1 | 0.891 µM [rising, full curve, poor fit] | 5.62 µM [rising, partial curve]
Cc1cc(C)c(C#N)c(SCc2ccccc2C)n1 | 25.1 µM [rising, partial curve, poor fit] | 35.5 µM [rising, single point]
O=C(Nc1ccccc1Cl)c1ccccc1Oc1ccc(C(F)(F)F)cc1[N+](=O)[O-] | 0.0316 µM [falling, single point] | 0.0355 µM [falling, single point]
O=C(N/N=C/c1ccncc1)c1cccc(N/N=C/c2ccncc2)c1 | – | 35.5 µM [rising, single point]
CCOc1ccc(OCc2nnc(SCC(=O)NC3CCS(=O)(=O)C3)n2-c2ccc(Cl)cc2)cc1 (stereo unspecified) | 20 µM [rising, single point] | –
CC(=O)c1c(C)[nH]c(C(=O)OCCCCN2C(=O)c3ccccc3C2=O)c1C | 0.355 µM [rising, full curve] | 0.562 µM [rising, full curve]
Cc1c(Br)c([N+](=O)[O-])nn1CC(=O)Nc1ccc(Cc2ccncc2)cc1 | 7.94 µM [rising, partial curve] | 14.1 µM [rising, partial curve]
COc1ccc(-n2nnc3c(=O)n(CC(=O)N4CCCC4)cnc32)cc1 | – | 0.0251 µM [falling, partial curve, poor fit]
O=c1c2c(-c3ccccc3)csc2ncn1/N=C/c1cccc([N+](=O)[O-])c1O | – | 14.1 µM [rising, partial curve]
O=C(CCCc1c[nH]c2ccccc12)N1CCN(S(=O)(=O)c2cccs2)CC1 | 11.2 µM [rising, single point] | 22.4 µM [rising, single point]

3 of the compounds above, as a markdown table.

| Compound | AC50 [1] | AC50 [2] |
| --- | --- | --- |
| CCCCNC(=O)c1onc(CCl)c1C(=O)OC | 15.8 µM [falling, single point] | 25.1 µM [falling, single point] |
| O=C(NCc1cccnc1)c1cc(Sc2ccc(F)cc2F)nc2ccccc12 | 25.1 µM [rising, single point] | 28.2 µM [rising, partial curve] |
| O=C(CCCc1c[nH]c2ccccc12)N1CCN(S(=O)(=O)c2cccs2)CC1 | 11.2 µM [rising, single point] | 22.4 µM [rising, single point] |

Further compounds follow.

Compound | AC50 [1] | AC50 [2]
O=C(CCC1CCCC1)N1CCc2c([nH]c3ccccc23)C1c1ccc(Cl)cc1 (stereo unspecified) | 5.62 µM [falling, full curve, poor fit] | –
CCOC(=O)n1ccn(C)c1=S | 14.1 µM [falling, single point] | 8.91 µM [falling, single point]
Nc1cc(N)nc(SCc2nnnn2-c2ccc(Cl)cc2)n1 | 22.4 µM [rising, single point] | 20 µM [rising, single point]
COc1cc(OC)nc(-n2ncc(Br)c(Br)c2=O)n1 | 10 µM [rising, partial curve] | 15.8 µM [rising, partial curve]
COCCCNC(=O)c1ccc(Cn2c(=O)c3ccccc3n(CC(=O)NCCc3ccc(OC)c(OC)c3)c2=O)cc1 | – | 0.126 µM [falling, full curve]
CCOC(=O)CN1C(=O)C(Sc2n[nH]c(-c3cccc(C)c3)n2)CCc2ccccc21 (stereo unspecified) | 8.91 µM [rising, partial curve] | 11.2 µM [rising, partial curve]
CN1CCCCCC1=NC1=C(C#N)CCCC1 | – | 31.6 µM [rising, single point]
CCCN1C=CC(=C/C=C(\C#N)C(=O)OCC)C=C1 | 17.8 µM [falling, single point] | 15.8 µM [falling, single point]
CCc1c(-c2n[nH]c(=S)n2Cc2ccccc2)csc1C | 15.8 µM [rising, single point] | –
NS(=O)(=O)c1cc2c(cc1Cl)NC(CSCc1ccccc1)=NS2(=O)=O | 0.00501 µM [falling, full curve, poor fit] | –
COc1ccc(Nc2ncnc3sc4c(c23)CCCC4)cc1 | 0.631 µM [rising, single point] | –
CC(C)(C)c1ccc(C2CC2C(=O)N/N=C\c2ccc[nH]2)cc1 (stereo unspecified) | 5.62 µM [falling, partial curve, poor fit] | 6.31 µM [falling, partial curve, poor fit]
O=C(/C=C\NCC(=O)c1ccccc1)c1ccc2ccccc2c1 | 12.6 µM [rising, single point] | 12.6 µM [rising, partial curve]
CC(C)CC(NC(=O)c1ccccc1NC(=O)c1ccccc1)C(=O)O (stereo unspecified) | – | 22.4 µM [falling, single point]
CCN(CC)S(=O)(=O)c1ccc2c(c1)N(CC(=O)N1CCN(c3cccc(C)c3C)CC1)C(=O)CO2 | 25.1 µM [falling, single point] | –
O=Cc1cn(-c2ccccc2)nc1-c1ccc2c(c1)OCCO2 | – | 14.1 µM [rising, single point]
COc1ccc(/C=C/C(=O)Nc2ccc(-n3nncc3-c3ccc(OC)c(OC)c3)cc2)cc1OC | – | 7.94 µM [rising, partial curve]
O=C(CSc1n[nH]c(-c2ccccc2Cl)n1)NCCc1ccccc1 | 1 µM [rising, full curve] | –
C=C(C)COc1ccc(-c2[nH]ncc2-c2ccccc2)c(O)c1 | 28.2 µM [falling, single point] | 11.2 µM [falling, single point]
C/C(=N\N1C(=O)c2ccccc2NC1c1ccccc1)c1ccccc1O (stereo unspecified) | 35.5 µM [falling, single point] | 31.6 µM [falling, single point]
O=C(NCC1CCCO1)c1cc(C(=O)C2CCCCC2)c[nH]1 (stereo unspecified) | 0.0316 µM [rising, full curve, poor fit] | –
CCOC(=O)c1[nH]c(C)c(C(=O)N2CCN(c3ccc(F)cc3)CC2)c1C | – | 4.47 µM [rising, single point]
Cc1ccc(NC(=S)NNC(=O)c2ccccc2OC(F)F)cc1 | – | 7.08 µM [rising, single point]
Cc1nn2c(=O)cc(COC(=O)c3cccc(NC(=O)COc4ccccc4C)c3)nc2s1 | 35.5 µM [falling, single point] | 35.5 µM [falling, single point]
O=C(CSc1nnc(COc2ccc(Br)cc2)o1)N1CCOCC1 | 3.55 µM [falling, full curve] | 3.98 µM [falling, full curve]
COc1ccc(C(=O)N2CCN(c3nc4cc(C)ccc4cc3C#N)CC2)c(OC)c1 | – | 20 µM [rising, partial curve, poor fit]
